{
  "sequences": {"note": "Protein sequences, listed by entry. Tags and fused reporters are not part of them.", "UniProt Q0JBA9, entry or part of it": "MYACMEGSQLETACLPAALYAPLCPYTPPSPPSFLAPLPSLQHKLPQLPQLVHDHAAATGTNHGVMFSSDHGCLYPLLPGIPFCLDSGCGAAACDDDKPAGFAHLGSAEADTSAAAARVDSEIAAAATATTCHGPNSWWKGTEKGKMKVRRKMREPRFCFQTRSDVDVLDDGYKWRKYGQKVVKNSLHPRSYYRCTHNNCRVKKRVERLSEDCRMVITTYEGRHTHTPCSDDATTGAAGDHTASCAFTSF"},
  "source": "paper PMC7819943",
  "about": "“Rice protein-binding microarrays: a tool to detect cis-acting elements near promoter regions in rice”",
  "note": "Some of the results follow.",
  "data": [
    {"target": "OsWRKY34 (Oryza sativa, UniProt Q0JBA9 1-250)", "experiment": "protein-binding microarray (RPBM); PBS, 2% BSA, 51.3 ng/ul salmon testes DNA, 50 uM zinc acetate, 200 nM TF, 25 C, 1 h; high values mean tight binding", "conditions": "protein: recombinant; tags: N-terminal polyhistidine and DsRed monomer fusion (pET32a); label: CyDye5-dUTP incorporated in the synthesized complementary strand; 3' TTTTT single-stranded linker to array surface; dsDNA, one strand shown", "procedure,_shortened": "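Per-feature fluorescence intensity (arbitrary units), read on an Axon 4000B scanner, is the binding signal. Transcription factors carrying an N-terminal polyhistidine tag and DsRed fusion were expressed in E. coli BL21-CodonPlus and purified on Ni–NTA. A custom Agilent array, made double-stranded by primer extension with Cy5-dUTP and blocked with 2% BSA, was incubated with 200 nM protein in PBS, 2% BSA, salmon testes DNA and 50 µM zinc acetate at 25 °C for 1 h and then washed.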", "values": [
      {"sequence": "GATCTTTGGGTCCCACATGTTATTTTTATTATTTTTGTTACGGAGTCACCTAGTGCAG", "binding signal": "8210 fluorescence intensity (a.u.)"},
      {"sequence": "GAATCATGTGCTATCTCGTTAATTATCTGCTCTTTTAGCTCGGAGTCACCTAGTGCAG", "binding signal": "9000 fluorescence intensity (a.u.)"},
      {"sequence": "ACATCCTTTCGCTATTTGCTGAAACATTGTTTTTATGTAGCGGAGTCACCTAGTGCAG", "binding signal": "8870 fluorescence intensity (a.u.)"},
      {"sequence": "AGGTGTAGTTTTTTGTTTTATAGATTGATAGGTGGAAAGACGGAGTCACCTAGTGCAG", "binding signal": "11000 fluorescence intensity (a.u.)"},
      {"sequence": "TAACAAACCCCACACTGTCTCTACTAGTCTTCGTCGTCCTCGGAGTCACCTAGTGCAG", "binding signal": "12000 fluorescence intensity (a.u.)"},
      {"sequence": "AGATAACTTGCCATGCCGCATTCTCTTTGAACTCGGTCTCCGGAGTCACCTAGTGCAG", "binding signal": "8530 fluorescence intensity (a.u.)"},
      {"sequence": "ACACGTTCAGGCTCATTTCCACCCGTCACGGGCAAATCGTCGGAGTCACCTAGTGCAG", "binding signal": "8240 fluorescence intensity (a.u.)"},
      {"sequence": "CATTTATCTATTTATCTATCTATATATATTATATTATATTCGGAGTCACCTAGTGCAG", "binding signal": "8560 fluorescence intensity (a.u.)"},
      {"sequence": "GATTCTCGCTAATCCGAGTGGCCAAATTGACTGTTCCATTCGGAGTCACCTAGTGCAG", "binding signal": "8680 fluorescence intensity (a.u.)"},
      {"sequence": "GAATCAAATCTCTACCGTCCATCCGTCATCTGATTTAATCCGGAGTCACCTAGTGCAG", "binding signal": "8160 fluorescence intensity (a.u.)"},
      {"sequence": "CGCGTTCTTATCTCGGCCATCGCCGTCGCCGTCGCCGTCGCGGAGTCACCTAGTGCAG", "binding signal": "8510 fluorescence intensity (a.u.)"},
      {"sequence": "GATACAATAATTACTCCGTATTACTCTCTCTCCCTGCTTACGGAGTCACCTAGTGCAG", "binding signal": "11300 fluorescence intensity (a.u.)"},
      {"sequence": "CGCCACCGCATCCAGTCACCTCACCACCACCGCAGCATCACGGAGTCACCTAGTGCAG", "binding signal": "10000 fluorescence intensity (a.u.)"},
      {"sequence": "AAAAGTCAACGGTGTCAAACATTTTAAAAGGGAGGGAGTACGGAGTCACCTAGTGCAG", "binding signal": "8040 fluorescence intensity (a.u.)"},
      {"sequence": "TATAAATCTGCAGCTTCACTCGCCGCTACCATCCAATCCACGGAGTCACCTAGTGCAG", "binding signal": "9630 fluorescence intensity (a.u.)"},
      {"sequence": "CAGCTTTTCCAGATTCTCACCAGCTGCTTCTCAGAGTCTTCGGAGTCACCTAGTGCAG", "binding signal": "10200 fluorescence intensity (a.u.)"},
      {"sequence": "TCCCACCCGTTATCTCTCCTAACTTTTTCTCTCCTCTCTCCGGAGTCACCTAGTGCAG", "binding signal": "8410 fluorescence intensity (a.u.)"},
      {"sequence": "GTTTGGATCCGCGTGCCGTCTAAGTTTCCGTTTTGGATCTCGGAGTCACCTAGTGCAG", "binding signal": "8370 fluorescence intensity (a.u.)"},
      {"sequence": "GAATGGTGGAGGGTTGCGATTGGTTGGGAAGATAATGTTGCGGAGTCACCTAGTGCAG", "binding signal": "10000 fluorescence intensity (a.u.)"},
      {"sequence": "AATCATCTACTATATTCTACATTAGTCTTCTGCATCCATCCGGAGTCACCTAGTGCAG", "binding signal": "11600 fluorescence intensity (a.u.)"},
      {"sequence": "CGATTCGTGTGTGTGCGCGACGCGTTTCCGCCTTTTACGTCGGAGTCACCTAGTGCAG", "binding signal": "9050 fluorescence intensity (a.u.)"},
      {"sequence": "AAAACCAAACCAAACCAATATTGCATGGTCCAGTGCACCACGGAGTCACCTAGTGCAG", "binding signal": "8280 fluorescence intensity (a.u.)"},
      {"sequence": "TACCACTGCGCATCCACCACCACCACACACGGATTTCAGACGGAGTCACCTAGTGCAG", "binding signal": "9500 fluorescence intensity (a.u.)"}
    ]}
  ]
}
